Measurements published in PubChem BioAssay AID2284371 (EPA ToxCast).
The inconclusive results got no clear call from the source; some entries with a clear call stand among them for comparison. Potencies beside an inconclusive call are fits to weak or partial responses and may not hold up. Calls of active or inactive are those of the source. Rule for the calls: active = hit-call score of the fitted dose curve at least 0.9, where 1 is the maximum; inconclusive = response in the unintended direction; inactive = score below 0.9.

Assay: ATG_M_61_EcoTox2: Attagene TRANS-FACTORIAL EcoTox-2 HepG2 Assay for M61 Transcription Factor (Internal Marker)
Protocol: ATG_EcoTox2 is a cell-based, multiplexed assay created by modifying the existing Attagene TRANS-FACTORIAL system to include a panel of nuclear receptors from some or all the following species: human (Homo sapiens), african clawed frog (Xenopus laevis), rainbow trout (Oncorhynchus mykiss), japanese medaka (Oryzias latipes), and zebrafish (Danio rerio). The ECOTOX2-FACTORIAL format uses HepG2, a human liver cell line, with measurements taken at 24 hours after chemical dosing in a 24-well plate. ATG_M_61_EcoTox2 is one of 29 assay components calculated in the ATG_EcoTox2 assay. It is designed to make measurements of mRNA induction, a form of inducible reporter, as detected with fluorescence intensity signals by Reverse transcription polymerase chain reaction (RT-PCR) and Capillary electrophoresis technology.The assay endpoint ATG_M_61_EcoTox2 was analyzed in the positive analysis fitting direction relative to DMSO as the negative control and baseline of activity. Using a type of inducible reporter, measures of mRNA for gain-of-signal activity can be used to understand the background control at the transcription factor-level as they relate to the gene. Furthermore, this assay endpoint can be referred to as a secondary readout, because this assay has produced multiple assay endpoints where this one serves a background control function. To generalize the intended target to other relatable targets, this assay endpoint is annotated to the background measurement intended target family, where the subfamily is internal marker.
Human liver HepG2 cells are transiently transfected with multiple reporter transcription units (MRTUs) in 6-well plates using FuGene 6 reagent (Roche; 3 ml FuGene/1 mg DNA). The MRTU constructs are regulated by a cis-regulating element (promoter). Each RTU expresses a GAL4-UAS that regulates the transcription of a nearby target reporter gene sequence. A major difference between the CIS and TRANS system is that in CIS activities of endogenous TFs are measured, whereas the TRANS assay evaluates changes in activities of exogenous, chimeric NR-Gal4 proteins. […] At the end of 24 hour incubation, total RNA was isolated using TriZol reagent (Invitrogen). The isolated RNA is then reverse-transcribed using oligo(dT) primer and Mo-MLV reverse transcriptase (Invitrogen) with DNAse I (Ambion) treatment for 30 min. The one-tenth of the produced cDNA was amplified by PCR using Taq DNA polymerase (Invitrogen) and two reporter sequence-specific primers. […] The fragments were purified using Qiaquick PCR columns (Qiagen), analyzed on an ABI 3130xL genetic analyzer (Applied Biosystems) with peak positions identified by using a set of X-rhodamine (ROX)-labeled MapMarker1000 molecular weight standards (BioVentures). […]

| Structure (SMILES) | outcome | AC50 |
| --- | --- | --- |
| O=P(Oc1ccccc1)(Oc1ccccc1)Oc1ccccc1 | inactive | – |
| O=S(=O)(O)C(F)(F)C(F)(F)C(F)(F)C(F)(F)C(F)(F)C(F)(F)F | inactive | – |
| [Cl][Sn]([c]1ccccc1)([c]1ccccc1)[c]1ccccc1 | – | inconclusive: 1390 nM |
| O=C(O)C(F)(F)C(F)(F)C(F)(F)C(F)(F)C(F)(F)C(F)(F)C(F)(F)F | inactive | – |
